The values below come from paper PMC11928053.

By UniProt entry, the sequences of proteins in these tests, tags left out.
UniProt Q9GZV5: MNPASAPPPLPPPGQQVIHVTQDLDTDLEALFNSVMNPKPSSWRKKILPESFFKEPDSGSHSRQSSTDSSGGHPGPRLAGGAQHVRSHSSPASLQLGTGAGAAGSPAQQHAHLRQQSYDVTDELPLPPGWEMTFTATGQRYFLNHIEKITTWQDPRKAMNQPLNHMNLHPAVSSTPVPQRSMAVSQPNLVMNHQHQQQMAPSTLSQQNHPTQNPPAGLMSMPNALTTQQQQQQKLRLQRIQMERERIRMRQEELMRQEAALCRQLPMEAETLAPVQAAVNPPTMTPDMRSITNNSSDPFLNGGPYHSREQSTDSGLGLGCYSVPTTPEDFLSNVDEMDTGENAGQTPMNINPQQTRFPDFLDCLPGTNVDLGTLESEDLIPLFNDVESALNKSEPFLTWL
UniProt D3ZP96: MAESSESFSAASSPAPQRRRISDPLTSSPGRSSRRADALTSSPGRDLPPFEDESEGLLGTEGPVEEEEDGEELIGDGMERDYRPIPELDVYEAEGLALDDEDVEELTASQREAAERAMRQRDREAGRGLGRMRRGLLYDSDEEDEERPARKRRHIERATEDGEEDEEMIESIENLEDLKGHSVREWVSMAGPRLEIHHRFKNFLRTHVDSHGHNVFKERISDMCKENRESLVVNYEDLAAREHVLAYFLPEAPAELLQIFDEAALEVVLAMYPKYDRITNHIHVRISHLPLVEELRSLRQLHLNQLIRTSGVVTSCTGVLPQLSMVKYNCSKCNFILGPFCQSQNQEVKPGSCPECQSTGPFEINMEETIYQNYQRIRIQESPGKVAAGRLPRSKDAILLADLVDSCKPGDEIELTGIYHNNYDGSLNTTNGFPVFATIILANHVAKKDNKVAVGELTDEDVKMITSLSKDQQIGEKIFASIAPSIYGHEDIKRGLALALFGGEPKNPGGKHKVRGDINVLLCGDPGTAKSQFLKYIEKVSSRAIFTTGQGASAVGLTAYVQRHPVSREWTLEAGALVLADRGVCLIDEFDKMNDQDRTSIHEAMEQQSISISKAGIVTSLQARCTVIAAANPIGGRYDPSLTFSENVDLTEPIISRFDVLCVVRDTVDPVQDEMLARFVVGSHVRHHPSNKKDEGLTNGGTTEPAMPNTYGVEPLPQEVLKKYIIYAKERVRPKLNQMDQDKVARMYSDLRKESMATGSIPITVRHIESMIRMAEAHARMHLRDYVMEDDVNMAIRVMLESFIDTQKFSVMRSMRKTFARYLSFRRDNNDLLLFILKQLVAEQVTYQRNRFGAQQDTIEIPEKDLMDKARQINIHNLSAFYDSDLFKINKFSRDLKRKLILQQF
UniProt A2BH40: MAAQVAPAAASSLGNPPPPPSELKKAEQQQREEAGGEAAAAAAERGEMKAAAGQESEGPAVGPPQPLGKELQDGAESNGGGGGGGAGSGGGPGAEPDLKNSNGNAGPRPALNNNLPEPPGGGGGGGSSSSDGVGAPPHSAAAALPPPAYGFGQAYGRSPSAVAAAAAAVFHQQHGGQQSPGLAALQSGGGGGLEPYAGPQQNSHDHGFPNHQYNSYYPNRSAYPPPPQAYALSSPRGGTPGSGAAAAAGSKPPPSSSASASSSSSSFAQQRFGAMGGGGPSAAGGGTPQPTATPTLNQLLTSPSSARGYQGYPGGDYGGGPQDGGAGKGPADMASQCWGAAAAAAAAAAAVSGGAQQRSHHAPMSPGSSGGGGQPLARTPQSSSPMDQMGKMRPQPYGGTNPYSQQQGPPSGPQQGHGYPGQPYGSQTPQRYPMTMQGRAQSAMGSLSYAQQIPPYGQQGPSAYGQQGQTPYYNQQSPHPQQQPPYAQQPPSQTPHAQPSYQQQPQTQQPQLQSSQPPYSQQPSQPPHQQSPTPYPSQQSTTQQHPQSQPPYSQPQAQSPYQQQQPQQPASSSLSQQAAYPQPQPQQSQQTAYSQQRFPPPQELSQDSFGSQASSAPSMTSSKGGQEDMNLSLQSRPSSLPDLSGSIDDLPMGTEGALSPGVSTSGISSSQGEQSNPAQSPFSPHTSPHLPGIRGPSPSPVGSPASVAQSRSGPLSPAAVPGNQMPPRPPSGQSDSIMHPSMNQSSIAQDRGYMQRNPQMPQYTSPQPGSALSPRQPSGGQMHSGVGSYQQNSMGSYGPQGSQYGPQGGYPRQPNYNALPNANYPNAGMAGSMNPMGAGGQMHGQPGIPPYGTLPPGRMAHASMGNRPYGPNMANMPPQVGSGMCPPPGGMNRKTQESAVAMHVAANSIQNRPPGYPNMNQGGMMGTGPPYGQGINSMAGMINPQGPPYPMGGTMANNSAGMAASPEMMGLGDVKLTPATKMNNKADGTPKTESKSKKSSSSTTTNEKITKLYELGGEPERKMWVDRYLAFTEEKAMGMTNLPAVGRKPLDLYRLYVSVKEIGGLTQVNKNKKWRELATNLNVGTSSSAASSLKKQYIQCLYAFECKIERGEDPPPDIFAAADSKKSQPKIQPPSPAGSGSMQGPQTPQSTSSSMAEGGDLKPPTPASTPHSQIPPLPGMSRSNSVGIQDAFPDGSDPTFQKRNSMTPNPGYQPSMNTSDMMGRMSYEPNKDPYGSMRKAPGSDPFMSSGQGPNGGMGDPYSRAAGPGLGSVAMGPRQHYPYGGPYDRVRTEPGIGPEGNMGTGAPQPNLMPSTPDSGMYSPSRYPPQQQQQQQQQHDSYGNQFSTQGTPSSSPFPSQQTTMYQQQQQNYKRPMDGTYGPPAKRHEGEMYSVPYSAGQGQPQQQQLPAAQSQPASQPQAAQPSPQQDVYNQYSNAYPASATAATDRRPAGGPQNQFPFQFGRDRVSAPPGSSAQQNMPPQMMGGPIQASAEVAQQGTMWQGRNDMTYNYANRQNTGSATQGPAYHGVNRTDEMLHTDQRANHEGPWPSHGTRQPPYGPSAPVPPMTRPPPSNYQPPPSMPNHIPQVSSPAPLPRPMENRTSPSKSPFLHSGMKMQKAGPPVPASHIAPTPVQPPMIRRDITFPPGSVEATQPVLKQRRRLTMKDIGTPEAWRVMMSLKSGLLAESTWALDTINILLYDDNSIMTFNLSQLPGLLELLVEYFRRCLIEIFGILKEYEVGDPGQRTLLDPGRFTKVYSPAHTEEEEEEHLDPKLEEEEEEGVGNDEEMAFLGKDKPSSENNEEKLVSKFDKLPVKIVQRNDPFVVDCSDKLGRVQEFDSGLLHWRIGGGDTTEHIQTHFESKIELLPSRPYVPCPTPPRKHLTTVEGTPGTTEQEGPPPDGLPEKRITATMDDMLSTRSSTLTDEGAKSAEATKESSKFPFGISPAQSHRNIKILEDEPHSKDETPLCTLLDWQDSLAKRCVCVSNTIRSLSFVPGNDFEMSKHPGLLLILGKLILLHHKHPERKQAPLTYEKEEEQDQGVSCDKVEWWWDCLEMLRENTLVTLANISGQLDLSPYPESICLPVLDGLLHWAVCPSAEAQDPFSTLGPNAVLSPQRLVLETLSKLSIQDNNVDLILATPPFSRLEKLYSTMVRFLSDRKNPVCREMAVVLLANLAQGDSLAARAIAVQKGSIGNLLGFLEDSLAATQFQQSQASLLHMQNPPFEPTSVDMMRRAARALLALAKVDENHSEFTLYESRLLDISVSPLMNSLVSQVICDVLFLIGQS
UniProt Q08943: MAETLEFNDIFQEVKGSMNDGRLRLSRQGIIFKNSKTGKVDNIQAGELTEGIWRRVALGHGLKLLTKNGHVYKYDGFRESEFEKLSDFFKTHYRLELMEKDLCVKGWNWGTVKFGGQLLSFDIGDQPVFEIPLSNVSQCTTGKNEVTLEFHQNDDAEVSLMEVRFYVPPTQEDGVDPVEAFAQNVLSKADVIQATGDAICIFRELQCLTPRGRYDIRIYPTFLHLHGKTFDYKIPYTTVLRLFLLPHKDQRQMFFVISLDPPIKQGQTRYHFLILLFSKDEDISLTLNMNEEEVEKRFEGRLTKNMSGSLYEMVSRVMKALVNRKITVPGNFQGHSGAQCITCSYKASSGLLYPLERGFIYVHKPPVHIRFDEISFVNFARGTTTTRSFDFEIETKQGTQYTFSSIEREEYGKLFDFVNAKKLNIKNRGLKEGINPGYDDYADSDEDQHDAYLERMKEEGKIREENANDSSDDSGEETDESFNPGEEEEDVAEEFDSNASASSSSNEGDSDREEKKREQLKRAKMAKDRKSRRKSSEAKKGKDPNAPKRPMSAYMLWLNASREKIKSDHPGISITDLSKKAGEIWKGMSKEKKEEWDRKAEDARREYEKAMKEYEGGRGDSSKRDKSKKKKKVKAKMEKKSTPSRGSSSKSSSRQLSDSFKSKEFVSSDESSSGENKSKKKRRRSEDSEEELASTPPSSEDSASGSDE
UniProt O09106: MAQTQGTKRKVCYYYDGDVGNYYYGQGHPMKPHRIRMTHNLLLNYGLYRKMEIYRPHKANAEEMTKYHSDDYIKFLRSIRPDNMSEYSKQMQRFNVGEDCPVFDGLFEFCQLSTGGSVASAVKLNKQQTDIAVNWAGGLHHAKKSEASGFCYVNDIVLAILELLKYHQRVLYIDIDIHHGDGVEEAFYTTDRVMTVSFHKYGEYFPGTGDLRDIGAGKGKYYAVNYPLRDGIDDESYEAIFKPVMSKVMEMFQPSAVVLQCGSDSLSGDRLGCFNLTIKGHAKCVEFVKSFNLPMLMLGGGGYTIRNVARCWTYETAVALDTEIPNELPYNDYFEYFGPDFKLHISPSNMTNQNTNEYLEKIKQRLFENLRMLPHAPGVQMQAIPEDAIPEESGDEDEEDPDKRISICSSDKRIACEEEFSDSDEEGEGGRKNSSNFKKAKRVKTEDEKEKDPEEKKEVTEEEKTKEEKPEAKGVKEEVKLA
UniProt Q9R190: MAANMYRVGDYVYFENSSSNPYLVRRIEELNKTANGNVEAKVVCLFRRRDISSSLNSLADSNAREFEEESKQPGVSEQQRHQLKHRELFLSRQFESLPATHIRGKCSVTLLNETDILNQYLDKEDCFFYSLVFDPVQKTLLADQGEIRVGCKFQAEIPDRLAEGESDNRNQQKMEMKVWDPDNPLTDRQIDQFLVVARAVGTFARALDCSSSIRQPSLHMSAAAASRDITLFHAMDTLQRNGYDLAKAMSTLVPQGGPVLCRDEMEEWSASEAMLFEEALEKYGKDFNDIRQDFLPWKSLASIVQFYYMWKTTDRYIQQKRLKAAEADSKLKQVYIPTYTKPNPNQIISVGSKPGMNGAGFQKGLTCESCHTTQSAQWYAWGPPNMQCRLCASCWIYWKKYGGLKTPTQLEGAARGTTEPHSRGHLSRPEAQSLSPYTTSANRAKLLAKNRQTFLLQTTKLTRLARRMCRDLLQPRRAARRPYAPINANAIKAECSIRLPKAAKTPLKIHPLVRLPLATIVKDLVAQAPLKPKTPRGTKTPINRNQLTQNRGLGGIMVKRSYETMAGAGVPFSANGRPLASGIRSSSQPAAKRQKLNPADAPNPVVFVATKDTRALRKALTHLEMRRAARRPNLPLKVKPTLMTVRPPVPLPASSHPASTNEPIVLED
UniProt P97496: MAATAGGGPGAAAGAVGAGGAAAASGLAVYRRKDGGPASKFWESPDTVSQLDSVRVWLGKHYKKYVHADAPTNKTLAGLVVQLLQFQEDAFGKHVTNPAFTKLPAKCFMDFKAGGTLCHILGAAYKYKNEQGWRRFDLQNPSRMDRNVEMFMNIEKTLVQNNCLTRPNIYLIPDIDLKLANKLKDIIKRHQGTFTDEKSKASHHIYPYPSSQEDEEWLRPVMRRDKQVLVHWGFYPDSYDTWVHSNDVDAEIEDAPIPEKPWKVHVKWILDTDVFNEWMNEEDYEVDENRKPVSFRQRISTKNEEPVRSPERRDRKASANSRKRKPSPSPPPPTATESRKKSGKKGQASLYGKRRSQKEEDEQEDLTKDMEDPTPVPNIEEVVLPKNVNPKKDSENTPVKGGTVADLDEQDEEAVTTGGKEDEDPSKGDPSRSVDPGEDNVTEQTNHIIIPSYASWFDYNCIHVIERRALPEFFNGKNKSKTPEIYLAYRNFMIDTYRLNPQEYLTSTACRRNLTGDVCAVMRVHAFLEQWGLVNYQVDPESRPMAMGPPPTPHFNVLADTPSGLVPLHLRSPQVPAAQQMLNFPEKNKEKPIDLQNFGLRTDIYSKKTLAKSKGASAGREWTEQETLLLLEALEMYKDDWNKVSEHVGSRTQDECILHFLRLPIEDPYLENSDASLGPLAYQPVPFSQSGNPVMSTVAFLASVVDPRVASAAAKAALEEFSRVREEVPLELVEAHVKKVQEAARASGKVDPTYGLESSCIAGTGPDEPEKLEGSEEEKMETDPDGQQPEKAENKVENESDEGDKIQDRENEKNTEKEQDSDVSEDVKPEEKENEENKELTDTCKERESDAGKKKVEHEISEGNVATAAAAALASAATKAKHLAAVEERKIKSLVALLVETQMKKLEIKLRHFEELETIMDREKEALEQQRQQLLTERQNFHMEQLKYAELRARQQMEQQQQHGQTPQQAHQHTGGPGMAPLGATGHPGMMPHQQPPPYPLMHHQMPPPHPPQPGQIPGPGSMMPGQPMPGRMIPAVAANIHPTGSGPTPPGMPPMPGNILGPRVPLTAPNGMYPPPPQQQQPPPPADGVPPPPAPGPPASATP

Results are given in words; binding and its absence hold for the method and conditions named. Binding seen in cells or lysates may run through a third protein. A yes stands for co-enrichment or nearness to the bait. Other partners may have been found.

Sequences and labels used below:
B1: SMC1A (protein, UniProt Q9Z1M9 1-1233)
chain: MGFLKLIEIENFKSYKGRQIIGPFQRFTAIIGPNGSGKSNLMDAISFVLGEKTSNLRVKTLRDLIHGAPVGKPAANRAFVSMVYSEEGAEDRTFARVIVGGSSEYKINNKVVQLHEYSEELEKLGILIKARNFLVFQGAVESIAMKNPKERTALFEEISRSGELAQEYDKRKKEMVKAEEDTQFNYHRKKNIAAERKEAKQEKEEADRYQALKDEVVRAQVQLQLFKLYHNEVEIEKLNKELASKNKEIEKDKKRMDKVEDELKEKKKELGKMMREQQQIEKEIKEKDSELNQKRPQYIKAKENTSHKIKKLEAAKKSLQNRQKHYKKRKGDMDELEKEMLSVEKARQEFEERMEEESQSQGRDLTLEENQVKKYHRLKEEASKRAATLAQELEKFNRDQKADQDRLDLEERKKVETEAKIKQKLREIEENQKRIEKLEEYITTSKQSLEEQKKLEGELTEEVEMAKRRIDEINKELNQVMEQLGDARIDRQESSRQQRKAEIMESIKRLYPGSVYGRLIDLCQPTQKKYQIAVTKVLGKNMDAIIVDSEKTGRDCIQYIKEQRGEPETFLPLDYLEVKPTDEKLRELKGAKLVIDVIRYEPPHIKKALQYACGNALVCDNVEDARRIAFGGHQRHKTVALDGTLFQKSGVISGGASDLKAKARRWDEKAVDKLKEKKERLTEELKEQMKAKRKEAELRQVQSQAHGLQMRLKYSQSDLEQTKTRHLALNLQEKSKLESELANFGPRINDIKRIIQSREREMKDLKEKMNQVEDEVFEEFCREIGVRNIREFEEEKVKRQNEIAKKRLEFENQKTRLGIQLDFEKNQLKEDQDKVHMWEQTVKKDENEIEKLKKEEQRHMKIIDETMAQLQDLKNQHLAKKSEVNDKNHEMEEIRKKLGGANKEMTHLQKEVTAIETKLEQKRSDRHNLLQACKMQDIKLPLSKGTMDDISQEEGGSQGEESVSGSQRTSSIYAREALIEIDYGDLCEDLKDAQAEEEIKQEMNTLQQKLNEQQSVLQRIAAPNMKAMEKLESVRDKFQETSDEFEAARKRAKKAKQAFEQIKKERFDRFNACFESVATNIDEIYKALSRNSSAQAFLGPENPEEPYLDGINYNCVAPGKRFRPMDNLSGGEKTVAALALLFAIHSYKPAPFFVLDEIDAALDNTNIGKVANYIKEQSTCNFQAIVISLKEEFYTKAESLIGVYPEQGDCVISKVLTFDLTKYPDANPNPNEQ
B2: MCM4 (protein, UniProt G3V681 1-862)
chain: MSSPASTPSRRSSRRGRVTPTQSLRSEESRSSPSGRRRGEDSSTGELLPMPTSPGADLQSPAAQNALFSSPPQMHSSAIPLEFDVSSPLTYGTPSSRVEGTPRSGVRGTPMRQRPDLGSARKGLQVDLQSDGAAAEDTVASEQSLGQKLVIWGTDVNVATCKEHFQRFLQCFTDPLAKEEENVGIDITQPLYMQRLGEINITGEPFLNVNCEHIKSFGKNLYRQLISYPQEVIPTFDMAVNEIFFDRYPDSILEHQIQVRPFNALKTKSMRNLNPEDIDQLITISGMVIRTSQLIPEMQEAFFQCQVCAHTTRVEMDRGRIAEPCTCVHCHTTHSMALIHNRSLFSDKQMIKLQESPEDMPAGQTPHTVVLFAHNDLVDKVQPGDRVNVTGIYRAVPIRVNPRVSNVKSVYKTHIDVIHYRKTDAKRLHGLDEEAEQKLFSEKRVKLLKELSRKPDIYERLASALAPSIYEHEDIKKGILLQLFGGTRKDFSHTGRGKFRAEINILLCGDPGTSKSQLLQYVYNLVPRGQYTSGKGSSAVGLTAYVMKDPETRQLVLQTGALVLSDNGICCIDEFDKMNESTRSVLHEVMEQQTLSIAKAGIICQLNARTSVLAAANPIESQWNPKKTTIENIQLPHTLLSRFDLIFLMLDPQDEAYDRRLAHHLVSLYYQSEEQVEQEFLDMAVLKDYIAYAHSTIMPRLSEEASQALIEAYVNMRKIGSSRGMVSAYPRQLESLIRLAEAHAKVRFSDKVEAIDVEEAKRLHREALKQSATDPRTGIVDISILTTGMSATSRKRKEELAEALRKLILSKGKTPALKYQQLFEDIRGQSDTAITKDMFEEALRALADDDFLTVTGKTVRLL
B3: MCM3 (protein, UniProt D3ZFP4 1-813)
chain: MAGTVVLDDVELREAQRDYLDFLDDEEDQGIYQNKVRELISDNQYRLIVNVNDLRRKNEKRANRLLNNAFEELVAFQRALKDFVASIDATYAKQYEEFYIGLEGSFGSKHVSPRTLTSCFLSCVVCVEGIVTKCSLVRPKVVRSVHYCPATKKTIERRYSDLTTLVAFPSSSVYPTKDEENNPLETEYGLSVYKDHQTITIQEMPEKAPAGQLPRSVDVILDDDLVDKVKPGDRIQVVGTYRCLPGKKGGYTSGTFRTVLIACNVKQMSKDIQPAFSADDIAKIKKFSKTRSKDVFEQLARSLAPSIHGHDYVKKAILCLLLGGVERELENGSHIRGDINILLIGDPSVAKSQLLRYVLCTAPRAIPTTGRGSSGVGLTAAVTTDQETGERRLEAGAMVLADRGVVCIDEFDKMSDMDRTAIHEVMEQGRVTIAKAGIHARLNARCSVLAAANPVYGRYDQYKTPMENIGLQDSLLSRFDLLFIMLDQMDPEQDREISDHVLRMHQYRAPGEQDGDALPLGSSVDILATDDPDFTQDDQQDTRIYEKHDNLLHGSKKKREKMVSAAFMKKYIHVAKIIKPTLTQESAAYIAEEYSRLRSQDSMSSDTARTSPVTARTLETLIRLATAHAKARMSKTVDLQDAEEAVELVQYAYFKKVLEKEKKRKKPSEDESDLEDEEEKSQEEDTEQTRKRRKTQAKDGESYDPYDFSEAEREMPQVHTPKTDDSQEKTDESQETQESQKVELSESRLKAFKAALLEVFQEAHAQSVGMIHLTESINRNKEEPFSSEEIQASLSRMQDDNQVMVSEGIVFLI
B4: LATS1 kinase (enzyme, UniProt Q8BYR2 1-1129)
chain: MKRGEKPEGYRQMRPKTFPASNYPGSSRQMLQEIRESLRNLSKPSDASKAEHNLNKMSTEDPRQVRNPPKFGTHHKALQEIRNSLLPFANETSSSRSPSEVNPQMFQDLQAAGFDEDMVIQALQKTNNRSIEAAVEFISKMSYQDPRREQMSAAAARPINATMKPGNVQHSINRKQSWKGSKESLVPQRHGPSLGENVVYRSESPNSQADVGRPLSGSGIAAFAQAHPSNGQRVNPPPPPQVRSVTPPPPPRGQTPPPRGTTPPPPSWEPSSQTKRYSGNMEYVISRISPVPPGAWQEGYPPPPLTTSPMNPPSQAQRAISSVPVGRQPIIMQSTSKFNFTPGRPGVQNGGGQSDFIVHQNVPTGSVTRQPPPPYPLTPANGQSPSALQTGASAAPPSFANGNVPQSMMVPNRNSHNMELYNINVPGLQTAWPQSSSAPAQSSPSGGHEIPTWQPNIPVRSNSFNNPLGSRASHSANSQPSATTVTAITPAPIQQPVKSMRVLKPELQTALAPTHPSWMPQPVQTVQPTPFSEGTASSVPVIPPVAEAPSYQGPPPPYPKHLLHQNPSVPPYESVSKPCKDEQPSLPKEDDSEKSADSGDSGDKEKKQITTSPITVRKNKKDEERRESRIQSYSPQAFKFFMEQHVENVLKSHQQRLHRKKQLENEMMRVGLSQDAQDQMRKMLCQKESNYIRLKRAKMDKSMFVKIKTLGIGAFGEVCLARKVDTKALYATKTLRKKDVLLRNQVAHVKAERDILAEADNEWVVRLYYSFQDKDNLYFVMDYIPGGDMMSLLIRMGIFPENLARFYIAELTCAVESVHKMGFIHRDIKPDNILIDRDGHIKLTDFGLCTGFRWTHDSKYYQSGDHPRQDSMDFSNEWGDPSNCRCGDRLKPLERRAARQHQRCLAHSLVGTPNYIAPEVLLRTGYTQLCDWWSVGVILFEMLVGQPPFLAQTPLETQMKVINWQTSLHIPPQAKLSPEASDLIIKLCRGPEDRLGKNGADEIKAHPFFKTIDFSSDLRQQSASYIPKITHPTDTSNFDPVDPDKLWSDGSEEENISDTLNGWYKNGKHPEHAFYEFTFRRFFDDNGYPYNYPKPIEYEYIHSQGSEQQSDEDDQHTSSDGNNRDLVYV

The target of the first test is EYFP–TAZ (UniProt Q9GZV5). Description: affinity purification with mass spectrometry; EYFP-TAZ from transfected HEK293T lysate immobilised on GFP-Trap magnetic agarose beads, washed, incubated overnight at 4°C with 1 mg of neonatal rat cardiomyocyte extract; hits at least threefold enriched over the GFP control; LC-MS/MS; only the target purified.
Consider MCM2 (from UniProt D3ZP96 1-905), for which the binding entry was “binds”.
On the same count and under the same terms, as for B1, the entry is “binds”.
For B2, the binding entry is reported as “binds”.
The same measure, in the same setting: as for B3, the entry is “binds”.

In another test the target is EYFP–TAZ (UniProt Q9GZV5). The test is described as follows: affinity purification with mass spectrometry; EYFP-TAZ from transfected HEK293T lysate immobilised on GFP-Trap magnetic agarose beads, washed (RIPA, NP-40 lysis buffer), incubated overnight at 4°C with 1 mg of prey extract (nuclear-enriched C2C12 or neonatal rat cardiomyocyte); the text does not tell which of the two datasets holds each hit; hits at least threefold enriched over the GFP control; LC-MS/MS; only the target purified.
With ARID1A (from UniProt A2BH40 1-2283), the binding result is given as “binds”.
Still for that read-out and setting: as for CHD4 (from UniProt Q6PDQ2 1-1915), the entry is “binds”.
On the same count and under the same terms, as for “FACT complex subunit SSRP1 (from UniProt Q08943 1-708)”, the entry is “binds”; as for HDAC1 (from UniProt O09106 1-482), “binds”; as for MPDZ (from UniProt Q8VBX6 1-2055), “binds”.
On the same count and under the same terms, as for “MTA2 (endogenous) (from UniProt Q9R190 1-668)”, the entry is “binds”; as for SCRIB (from UniProt Q80U72 1-1665), “binds”.
For the molecule SMARCA4 (from UniProt Q3TKT4 1-1613), the binding result is “binds”.
As for SMARCC1 (from UniProt P97496 1-1104), the binding result is given as “binds”.
Still for that read-out and setting: as for “TLE3 (endogenous) (from UniProt Q08122 1-772)”, the entry is “binds”; as for B4, “binds”.
